Results from publication PMC13190601.

Chains of the proteins cited; added tags and fusions are not shown. A line that says so, or that is headed by a name, gives the form on record, which may keep a tag or linker.
GmSAUR (Glycine max), one chain, as listed by the source: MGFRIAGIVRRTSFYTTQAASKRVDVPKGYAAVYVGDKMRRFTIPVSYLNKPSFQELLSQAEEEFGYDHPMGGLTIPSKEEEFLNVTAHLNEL

Legend:
GmSAUR (Glycine max) [1] = assay: competition with a labelled probe; conditions: 50- and 100-fold molar excess of unlabeled DNA reduces the complex; not given; EMSA as previously described (Sun et al., 2023); recombinant protein; protein details: GST
GmSAUR (Glycine max) [2] = assay: EMSA; conditions: not given; EMSA as previously described (Sun et al., 2023); recombinant protein; protein details: GST

## GACTAAGTTGAAGATGCAGTTGCTATACAACCTCTCATTCAAGTAC (double strand) [GmMYB176 promoter unlabeled competitor]
GmSAUR (Glycine max) [1]
  binding result: binds

## GACTAAGTTGAAGATGCAGTTGCTATACAACCTCTCATTCAAGTAC (double strand) [GmMYB176 promoter probe]
GmSAUR (Glycine max) [2]
  binding result: binds

Construct, isoform or probe ends are uncertain for at least one entry.
